In all, about 330,000 compounds went through this assay and about 7,700 (2.3%) were called active. Inconclusive results, whose numbers are uncertain, are shown with a selection of clear calls. Calls follow the shape of the dose curve; as a rule, active = well fitted inhibition curve with a large enough effect; inconclusive = small, poorly fitted or top-dose-only effect, or effect the other way; inactive = flat fitted curve, though single readings scatter. Potencies beside an inconclusive call are fits to weak or partial responses and may not hold up.
Assay: qHTS screen for small molecules that inhibit ELG1-dependent DNA repair in human embryonic kidney (HEK293T) cells expressing luciferase-tagged ELG1; also: nearly all actives have a fitted effect of over 55% in size
Conditions: HEK293T ELG1-luciferase reporter, luminescence, 16 h, DNA damage induced by 5-fluorouridine; series mostly up to 46.1 µM
Summary of the method: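 HEK293T cells expressing luciferase-tagged ELG1 (2,000/well) received 5-Fluorouridine plus compound or DMSO for 16 hr at 37 °C. Luciferase was read by ONE-Glo luminescence after 30 min at room temperature.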
Potency is read from the fitted curve at half-maximal effect.

Structure (SMILES)	Potency
COc1cc(/C=C/[N+](=O)[O-])ccc1O	active: 23.1 µM
CCOc1ccc(OCC)c(NC(=O)CN2CCN(c3ccc(C)cc3C)CC2)c1	inconclusive: 16.4 µM [inhibitor, partial curve]
CCc1ccc(CNCCc2ccc(F)cc2)cc1	inactive
CC(=O)O[C@H]1C(=O)[C@@]2(C)C([C@H](OC(=O)c3ccccc3)[C@]3(O)C[C@H](OC(=O)[C@H](O)[C@@H](NC(=O)Cc4ccccc4)c4ccccc4)C(C)=C1C3(C)C)[C@]1(OC(C)=O)CO[C@@H]1C[C@@H]2O (stereo partly drawn)	inconclusive: 0.206 µM [inhibitor, partial curve, poor fit]
Cc1cccc(C(=O)Nc2ccc3c(c2)CC2(C(=O)N(C)C(=O)N(C)C2=O)C2CCCN32)c1 (stereo not drawn)	inactive
COc1ccc(-c2nnc3sc(C4CCCCC4)nn23)cc1OC	active: 18.4 µM
Cc1csc(NC(=O)C2CCCN(S(=O)(=O)c3ccc4c(c3)oc(=O)n4C)C2)n1 (stereo not drawn)	inconclusive: 18.4 µM [inhibitor, single point]
COc1cc(N)ccc1Cc1ccc(N)cc1OC	inconclusive: 16.4 µM [activator, partial curve, poor fit]
COc1ccc(CN2C(=O)NC(=O)/C(=C\c3ccco3)C2=O)cc1	inconclusive: 29.1 µM [activator, partial curve, poor fit]
O=C1NC(=O)C(CCc2ccncc2)(Cc2cccc(Cl)c2Cl)C(=O)N1c1ccc(Br)cc1 (stereo not drawn)	active: 16.4 µM
Nc1ccc2c(c1)Cc1ccccc1-2	inconclusive: 11.6 µM [activator, partial curve]
COc1cc2c(cc1OC)-c1c(OC)c(OC)c(OC)c3ccnc(c13)C2=O	active: 6.51 µM
CN1C(=O)C(=Cc2sc(=O)n(-c3ccccc3)c2N(C)C)C(=O)N(C)C1=O	inconclusive: 29.1 µM [activator, single point]
O=C(c1cc(-c2cccnc2)nc2ccccc12)N1CCC2(CC1)OCCO2	inconclusive: 29.1 µM [inhibitor, single point]
OCCN1C2CCC1CC(O)(c1ccc(F)cc1)C2 (stereo not drawn)	inactive
COC(=O)C1=C(c2ccc(OC)c(OC)c2)C[C@@H]2CC[C@H]1N2C(=O)NCCOc1ccc(OC)cc1	inactive
COc1ccc(O)c(CN2CCCC(C(=O)c3ccccc3SC)C2)c1 (stereo not drawn)	inconclusive: 29.1 µM [inhibitor, single point]
CCOc1cc2c(cc1OCC)-n1cccc1C(c1cc(OC)ccc1F)NC2 (stereo not drawn)	inconclusive: 14.6 µM [inhibitor, partial curve, poor fit]
Cc1ccc(OCC(=O)Nc2ccc(Cl)cc2C(=O)c2ccccc2)cc1	inconclusive: 0.184 µM [inhibitor, single point]
O=C(NC1CC2CCCC(C1)N2)c1ccccc1 (stereo not drawn)	inactive
CN(C)c1cccc2c(C#N)ccc(N(C)C)c12	inactive
O=C(COc1ccccc1Cl)N1CCCC(N2CCN(c3ccc(F)cc3)CC2)C1 (stereo not drawn)	inconclusive: 29.1 µM [inhibitor, single point]
Cc1cccc(Cn2cc(C=O)c3ccccc32)c1	inconclusive: 29.1 µM [inhibitor, single point]

Molecules shown so far containing sulfur (four):
Structure (SMILES)	Potency
COc1ccc(-c2nnc3sc(C4CCCCC4)nn23)cc1OC	active: 18.4 µM
Cc1csc(NC(=O)C2CCCN(S(=O)(=O)c3ccc4c(c3)oc(=O)n4C)C2)n1 (stereo not drawn)	inconclusive: 18.4 µM [inhibitor, single point]
CN1C(=O)C(=Cc2sc(=O)n(-c3ccccc3)c2N(C)C)C(=O)N(C)C1=O	inconclusive: 29.1 µM [activator, single point]
COc1ccc(O)c(CN2CCCC(C(=O)c3ccccc3SC)C2)c1 (stereo not drawn)	inconclusive: 29.1 µM [inhibitor, single point]

(continued)

Structure (SMILES)	Potency
CCN1C[C@]2(COC)CC[C@H](OC)[C@@]34C1[C@]1(OCO[C@@]15C[C@H](OC)[C@H]1C[C@@H]3[C@@H]5[C@H]1OC)[C@@H](O)[C@H]24	inconclusive: 35.5 µM [activator, single point]
Cc1nn(Cc2ccccc2)c(C)c1C=C1C(=O)NC(=S)NC1=O	inconclusive: 29.1 µM [inhibitor, single point]
O=C(Nc1ccc(OC(=O)N2CCCCC2)cc1)N1CCOCC1	inactive
COC(=O)C1=C(c2cccc(C#N)c2)C[C@@H]2CC[C@H]1N2C(=O)NCCOc1ccccc1Cl	inactive
CCN1CCN(C(=O)COc2ccc3oc4c(c3c2)CCCC4)CC1	inactive
COc1ccc(NC(=O)N(C)C[C@H]2Oc3c(NS(=O)(=O)c4ccc(F)cc4)cccc3C(=O)N([C@H](C)CO)C[C@@H]2C)cc1	inconclusive: 23.1 µM [activator, partial curve, poor fit]
O=S(=O)(NC1CCCCC1)OCC(Cl)(Cl)Cl	inactive
CC(CCc1ccccc1)NC(C)C(O)c1ccc(O)cc1 (stereo not drawn)	inactive
COc1cc2c(cc1OC)C(C1c3cc4c(cc3CCN1C)OCO4)OC2=O (stereo not drawn)	inactive
C=CCn1c(O)c(/C=C2\C=Nc3ccccc32)c(=O)[nH]c1=O	inconclusive: 16.4 µM [activator, single point]
O=C(N/N=C/c1c(O)n(Cc2ccc(F)cc2)c(=O)[nH]c1=O)c1ccccc1O	inactive
CCCNc1nc(OC)nc(N2CC3CC(C2)c2cccc(=O)n2C3)n1 (stereo not drawn)	inactive
O=C1NC(=O)N(c2ccccc2F)C(=O)/C1=C/c1cn(CC(=O)N2CCOCC2)c2ccccc12	inconclusive: 23.1 µM [activator, partial curve]
Oc1cc2c(cc1CN1CCN(c3ccccc3)CC1)CCC2	inconclusive: 32.6 µM [inhibitor, single point]
COC(=O)C1=C(c2cccc(OCc3ccccc3)c2)C[C@@H]2CC[C@H]1N2C(=O)NCc1cccc(C(F)(F)F)c1	inconclusive: 4.11 µM [inhibitor, full curve]
CN1CCN(c2ccc(/C=C3\C(=O)NC(=S)N(c4cccc(Br)c4)C3=O)o2)CC1	inactive
CC1(C)CN=C(Nc2nc3ccccc3s2)S1	inconclusive: 11.6 µM [activator, partial curve]
Cc1nn(Cc2ccccc2Cl)c(C)c1C(=O)OCC(=O)NC1CCS(=O)(=O)C1 (stereo not drawn)	inconclusive: 29.1 µM [inhibitor, single point]
CCN(CC)S(=O)(=O)c1cc(NC(=O)C(C)N2CC=C(c3ccccc3)CC2)ccc1C (stereo not drawn)	active: 14.6 µM
O=[N+]([O-])c1ccc(Cl)cc1	inactive
CN(C)C(=O)Oc1ccc2c(c1)O/C(=C\c1ccc(Cl)cc1)C2=O	inconclusive: 20.6 µM [activator, partial curve]
CNS(=O)(=O)c1ccc(N=Cc2c(O)n(-c3ccccc3)c(=O)[nH]c2=O)cc1	inconclusive: 18.3 µM [activator, partial curve, poor fit]
O=C(N=Nc1c(O)[nH]c(=O)[nH]c1=O)C1COc2cc3ccccc3cc2O1 (stereo not drawn)	inconclusive: 29.1 µM [inhibitor, single point]

Structure (SMILES)	Potency
CCCOP(=O)(OCCC)c1nc(-c2ccccc2)oc1NCc1ccccc1	inconclusive: 29.1 µM [inhibitor, single point]
CN(C)c1ccc(/C=C2/C(=O)NC(=O)N(CCc3ccc(F)cc3)C2=O)cc1	inconclusive: 29.1 µM [activator, single point]
CN1C(=O)N(C)C(=O)C2(Sc3ccccc3C2=O)C1=O	inactive
Nc1ccc2cc(Br)ccc2c1	inactive
CSc1ncc(/C=C2/C(=O)NC(=O)N(c3ccc(C)cc3)C2=O)cn1	inactive
CNCCc1nc(N)n[nH]1	inconclusive: 20.6 µM [activator, partial curve, poor fit]
COC(=O)C1=C(c2c(C)noc2C)C[C@@H]2CC[C@H]1N2C(=O)N1CCCC1	inconclusive: 29.1 µM [activator, single point]
C[C@H](O)[C@H]1CC[C@H]2[C@@H]3CCC4=CC(=O)CC[C@]4(C)[C@H]3CC[C@]12C	inconclusive: 20.6 µM [inhibitor, single point]
Cc1sc2c(c1C)C(c1cccs1)=NCC(=O)N2CC(=O)NCc1cccs1	inactive
COc1ccccc1N1CCN(Cc2cc(C)c(C)cc2O)CC1	inconclusive: 14.6 µM [inhibitor, partial curve]
Cc1cc(C)nc(N/N=C/C2=C(O)CC(c3ccccc3)CC2=O)n1 (stereo not drawn)	inconclusive: 2.59 µM [inhibitor, full curve]
O=C(c1n[nH]c(=O)c2ccccc12)N1CCC2(CC1)OCCO2	inconclusive: 29.1 µM [activator, single point]
CCC(CO)Nc1ccc([N+](=O)[O-])c2cccnc12 (stereo not drawn)	inactive
Cn1c(=O)oc2cc(S(=O)(=O)N3CCC(C(=O)N4CCN(c5ccccc5)CC4)CC3)ccc21	inconclusive: 36.6 µM [inhibitor, partial curve, poor fit]
COC(=O)C1=C(c2ccc(-c3ccccc3)c(F)c2)C[C@@H]2CC[C@H]1N2C(=O)NCCc1ccccc1	inconclusive: 13 µM [inhibitor, partial curve, poor fit]
O=c1[nH]c(O)c(C=Nc2ccccc2Oc2ccccc2)c(=O)[nH]1	inactive
COC1=CC2[C@@H]3Cc4ccc(OC)c(O)c4[C@]2(CCN3C)CC1=O (stereo partly drawn)	inconclusive: 7.3 µM [activator, partial curve, poor fit]
COc1ccc(-n2c(O)c(/C=C3\C=Nc4ccc(Br)cc43)c(=O)[nH]c2=O)cc1	inconclusive: 23.1 µM [activator, partial curve]
O=c1[nH]c(=O)n(-c2cccc3ccccc23)c(O)c1/C=N/N1CCCCCC1	inconclusive: 32.6 µM [inhibitor, partial curve, poor fit]
COc1ccc(-n2c(-c3ccc(C)cc3)nc3ccccc3c2=O)cc1	inconclusive: 10.3 µM [activator, partial curve]
Cc1ccc(S(=O)(=O)N2CCCC2c2cccnc2)cc1 (stereo not drawn)	inactive
CC(C)c1ccc(N=Nc2c(O)[nH]c(=O)[nH]c2=O)cc1	inconclusive: 5.17 µM [activator, partial curve]
